Results are given in words; binding and its absence hold for the method and conditions named. In cells and extracts the contact can be indirect. Some binding calls cover weakened binding; strength is not graded here.
Target: T1, Stimulator of interferon genes (STING), endogenous in mouse peritoneal macrophages (mouse (endogenous in peritoneal macrophages)) (UniProt Q3TBT3)
T1 sequence: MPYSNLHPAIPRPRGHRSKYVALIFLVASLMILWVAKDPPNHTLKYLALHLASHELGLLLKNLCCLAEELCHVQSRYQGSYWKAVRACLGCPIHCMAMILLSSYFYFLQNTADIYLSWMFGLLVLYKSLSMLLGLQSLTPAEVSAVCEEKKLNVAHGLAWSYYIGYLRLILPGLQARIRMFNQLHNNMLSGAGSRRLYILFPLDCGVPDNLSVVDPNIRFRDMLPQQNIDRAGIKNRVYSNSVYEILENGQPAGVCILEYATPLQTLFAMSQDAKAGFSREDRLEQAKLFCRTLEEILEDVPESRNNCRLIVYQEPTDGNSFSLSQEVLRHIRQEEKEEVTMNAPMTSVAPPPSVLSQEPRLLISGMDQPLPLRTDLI
Experiment: co-IP; endogenous proteins in mouse peritoneal macrophages, resting or stimulated with ISD or cGAMP; IP buffer 1.0% Nonidet P 40, 50 mM Tris-HCl pH 7.4, 50 mM EDTA, 150 mM NaCl; antibody with protein G Plus-Agarose overnight, five washes

B1: ZAPL (ZC3HAV1 long isoform), endogenous in mouse peritoneal macrophages (protein, UniProt Q3UPF5 1-996)
chain: MTDPEVFCFITKILCAHGGRMTLEELLGEISLPEAQLYELLKAAGPDRFVLLETGDQAGITRSVVATTRARVCRRKYCQRPCDSLHLCKLNLLGRCHYAQSQRNLCKYSHDVLSEQNFQVLKNHELSGLNQEELAVLLVQSDPFFMPEICKSYKGEGRKQICGQPQPCERLHICEHFTRGNCSYLNCLRSHNLMDRKVLAIMREHGLSSDVVQNIQDICNNKHTRRNPPSMRAPHPHRRGGAHRDRSKSRDRFHHNSLEVLSTVSPLGSGPPSPDVTGCKDPLEDVSADVTQKFKYLGTQDRAQLSSVSSKAAGVRGPSQMRASQEFLEDGDPDGLFSRNRSDSSTSRTSAAGFPLVAAQRNEAGAMKMGMPSGHHVEVKGKNEDIDRVPFLNSYIDGVTMEEATVSGILGKRATDNGLEEMILSSNHQKSVAKTQDPQTAGRITDSGQDTAFLHSKYEENPAWPGTSTHNGPNGFSQIMDETPNVSKSSPTGFGIKSAVTGGKEAVYSGVQSLRSHVLAMPGETTTPVQGSNRLPPSPLSSSTSHRVAASGSPGKSSTHASVSPASEPSRMMMMMSDPAEYSLCYIVNPVSPRMDDHGLKEICLDHLYRGCQQVNCNKNHFHLPYRWQLFILPTWMDFQDMEYIERAYCDPQIEIIVIEKHRINFKKMTCDSYPIRRLSTPSFVEKTLNSVFTTKWLWYWRNELNEYTQYGHESPSHTSSEINSAYLESFFHSCPRGVLQFHAGSQNYELSFQGMIQTNIASKTQRHVVRRPVFVSSKDVEQKRRGPDHQPVMPQADALTLFSSPQRNASTVSSNEYEFIELNNQDEEYAKISEQFKASMKQFKIVTIKRIWNQKLWDTFERKKQKMKNKTEMFLFHAVGRIHMDYICKNNFEWILHGNREIRYGKGNYFTKEAMYSHKSCSYDSRGTVMFVARVLVGSVIEGNMTLSSPPALYDSCVDTRLNPSVFVIFRKEQIYPEYVIEYMELEKEKGCIIS
binding: binds

Reference: article PMC11526107
